# Measurements from PMC7747717.
# No constants are given. Whether binding was seen depends on the method and setting. For some assays here: Binding seen in cells or lysates may run through a third protein. Some entries that bind do so weakly or less than the wild type. For some assays here: Where a sequence is shown, tags or fusion partners need not be part of it.
# T1: HA-tagged full-length RPC5 (human) (UniProt Q9NVU0)
# T1 sequence: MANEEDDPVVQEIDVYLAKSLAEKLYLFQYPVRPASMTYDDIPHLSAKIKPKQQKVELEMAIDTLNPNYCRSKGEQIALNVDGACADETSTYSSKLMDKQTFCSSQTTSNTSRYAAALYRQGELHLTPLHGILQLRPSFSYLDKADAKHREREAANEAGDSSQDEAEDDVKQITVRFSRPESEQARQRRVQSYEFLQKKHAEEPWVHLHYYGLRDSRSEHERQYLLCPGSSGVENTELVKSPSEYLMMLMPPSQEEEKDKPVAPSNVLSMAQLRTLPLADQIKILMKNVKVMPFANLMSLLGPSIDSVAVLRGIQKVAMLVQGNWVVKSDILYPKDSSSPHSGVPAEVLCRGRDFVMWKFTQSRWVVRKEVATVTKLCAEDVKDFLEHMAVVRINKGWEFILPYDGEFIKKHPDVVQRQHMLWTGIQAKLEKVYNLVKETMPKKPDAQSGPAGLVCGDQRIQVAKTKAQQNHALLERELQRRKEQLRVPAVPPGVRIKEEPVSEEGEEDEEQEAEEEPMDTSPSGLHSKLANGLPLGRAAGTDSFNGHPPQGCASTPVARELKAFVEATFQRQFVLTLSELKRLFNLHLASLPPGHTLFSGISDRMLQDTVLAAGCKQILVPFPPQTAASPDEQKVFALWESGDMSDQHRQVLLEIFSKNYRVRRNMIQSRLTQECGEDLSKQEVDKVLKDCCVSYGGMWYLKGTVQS
# Experiments:
# [1] = biological target: T1, HA-tagged full-length RPC5 (human); test: co-IP; HEK293T cells with siRNA knock-down of endogenous RPC5, transfected with HA-tagged RPC5 constructs, RIPA lysate, anti-HA magnetic beads, western blot
# RPC5 (556–708) (human) = RPC5 (556–708) (human) (UniProt Q9NVU0); test: SEC-SAXS; tWHD2 loaded at 3691 μM on a Bio SEC-3 HPLC column, 50 mM Tris-HCl pH 7.5, 150 mM NaCl, 10 mM β-mercaptoethanol; crystal models compared with the scattering by CRYSOL; both purified
# [2] = biological target: SeMet-RPC5 (556–708) (human) (UniProt Q9NVU0); test: crystal structure; SeMet-RPC5 (556–708), 3.2–3.8 M ammonium acetate, 100 mM Bis-Tris propane pH 6.5–7, 4 °C, space group P2(1); both purified
Binder,binding [1],also measured
"RPC2, endogenous in HEK293T cells (protein, UniProt Q9NW08 1-1133) MDVLAEEFGNLTPEQLAAPIPTVEEKWRLLPAFLKVKGLVKQHIDSFNYFINVEIKKIMKANEKVTSDADPMWYLKYLNIYVGLPDVEESFNVTRPVSPHECRLRDMTYSAPITVDIEYTRGSQRIIRNALPIGRMPIMLRSSNCVLTGKTPAEFAKLNECPLDPGGYFIVKGVEKVILIQEQLSKNRIIVEADRKGAVGASVTSSTHEKKSRTNMAVKQGRFYLRHNTLSEDIPIVIIFKAMGVESDQEIVQMIGTEEHVMAAFGPSLEECQKAQIFTQMQALKYIGNKVRRQRMWGGGPKKTKIEEARELLASTILTHVPVKEFNFRAKCIYTAVMVRRVILAQGDNKVDDRDYYGNKRLELAGQLLSLLFEDLFKKFNSEMKKIADQVIPKQRAAQFDVVKHMRQDQITNGMVNAISTGNWSLKRFKMDRQGVTQVLSRLSYISALGMMTRISSQFEKTRKVSGPRSLQPSQWGMLCPSDTPEGEACGLVKNLALMTHITTDMEDGPIVKLASNLGVEDVNLLCGEELSYPNVFLVFLNGNILGVIRDHKKLVNTFRLMRRAGYINEFVSISTNLTDRCVYISSDGGRLCRPYIIVKKQKPAVTNKHMEELAQGYRNFEDFLHESLVEYLDVNEENDCNIALYEHTINKDTTHLEIEPFTLLGVCAGLIPYPHHNQSPRNTYQCAMGKQAMGTIGYNQRNRIDTLMYLLAYPQKPMVKTKTIELIEFEKLPAGQNATVAVMSYSGYDIEDALVLNKASLDRGFGRCLVYKNAKCTLKRYTNQTFDKVMGPMLDAATRKPIWRHEILDADGICSPGEKVENKQVLVNKSMPTVTQIPLEGSNVPQQPQYKDVPITYKGATDSYIEKVMISSNAEDAFLIKMLLRQTRRPEIGDKFSSRHGQKGVCGLIVPQEDMPFCDSGICPDIIMNPHGFPSRMTVGKLIELLAGKAGVLDGRFHYGTAFGGSKVKDVCEDLVRHGYNYLGKDYVTSGITGEPLEAYIYFGPVYYQKLKHMVLDKMHARARGPRAVLTRQPTEGRSRDGGLRLGEMERDCLIGYGASMLLLERLMISSDAFEVDVCGQCGLLGYSGWCHYCKSSCHVSSLRIPYACKLLFQELQSMNIIPRLKLSKYNE",binds,–
"RPC4, endogenous in HEK293T cells (protein, UniProt P05423 1-398) MSEGNAAGEPSTPGGPRPLLTGARGLIGRRPAPPLTPGRLPSIRSRDLTLGGVKKKTFTPNIISRKIKEEPKEEVTVKKEKRERDRDRQREGHGRGRGRPEVIQSHSIFEQGPAEMMKKKGNWDKTVDVSDMGPSHIINIKKEKRETDEETKQILRMLEKDDFLDDPGLRNDTRNMPVQLPLAHSGWLFKEENDEPDVKPWLAGPKEEDMEVDIPAVKVKEEPRDEEEEAKMKAPPKAARKTPGLPKDVSVAELLRELSLTKEEELLFLQLPDTLPGQPPTQDIKPIKTEVQGEDGQVVLIKQEKDREAKLAENACTLADLTEGQVGKLLIRKSGRVQLLLGKVTLDVTMGTACSFLQELVSVGLGDSRTGEMTVLGHVKHKLVCSPDFESLLDHKHR",binds,–
"RPC1, endogenous in HEK293T cells (protein, UniProt O14802 1-1390) MVKEQFRETDVAKKISHICFGMKSPEEMRQQAHIQVVSKNLYSQDNQHAPLLYGVLDHRMGTSEKDRPCETCGKNLADCLGHYGYIDLELPCFHVGYFRAVIGILQMICKTCCHIMLSQEEKKQFLDYLKRPGLTYLQKRGLKKKISDKCRKKNICHHCGAFNGTVKKCGLLKIIHEKYKTNKKVVDPIVSNFLQSFETAIEHNKEVEPLLGRAQENLNPLVVLNLFKRIPAEDVPLLLMNPEAGKPSDLILTRLLVPPLCIRPSVVSDLKSGTNEDDLTMKLTEIIFLNDVIKKHRISGAKTQMIMEDWDFLQLQCALYINSELSGIPLNMAPKKWTRGFVQRLKGKQGRFRGNLSGKRVDFSGRTVISPDPNLRIDEVAVPVHVAKILTFPEKVNKANINFLRKLVQNGPEVHPGANFIQQRHTQMKRFLKYGNREKMAQELKYGDIVERHLIDGDVVLFNRQPSLHKLSIMAHLARVKPHRTFRFNECVCTPYNADFDGDEMNLHLPQTEEAKAEALVLMGTKANLVTPRNGEPLIAAIQDFLTGAYLLTLKDTFFDRAKACQIIASILVGKDEKIKVRLPPPTILKPVTLWTGKQIFSVILRPSDDNPVRANLRTKGKQYCGKGEDLCANDSYVTIQNSELMSGSMDKGTLGSGSKNNIFYILLRDWGQNEAADAMSRLARLAPVYLSNRGFSIGIGDVTPGQGLLKAKYELLNAGYKKCDEYIEALNTGKLQQQPGCTAEETLEALILKELSVIRDHAGSACLRELDKSNSPLTMALCGSKGSFINISQMIACVGQQAISGSRVPDGFENRSLPHFEKHSKLPAAKGFVANSFYSGLTPTEFFFHTMAGREGLVDTAVKTAETGYMQRRLVKSLEDLCSQYDLTVRSSTGDIIQFIYGGDGLDPAAMEGKDEPLEFKRVLDNIKAVFPCPSEPALSKNELILTTESIMKKSEFLCCQDSFLQEIKKFIKGVSEKIKKTRDKYGINDNGTTEPRVLYQLDRITPTQVEKFLETCRDKYMRAQMEPGSAVGALCAQSIGEPGTQMTLKTFHFAGVASMNITLGVPRIKEIINASKAISTPIITAQLDKDDDADYARLVKGRIEKTLLGEISEYIEEVFLPDDCFILVKLSLERIRLLRLEVNAETVRYSICTSKLRVKPGDVAVHGEAVVCVTPRENSKSSMYYVLQFLKEDLPKVVVQGIPEVSRAVIHIDEQSGKEKYKLLVEGDNLRAVMATHGVKGTRTTSNNTYEVEKTLGIEAARTTIINEIQYTMVNHGMSIDRRHVMLLSDLMTYKGEVLGITRFGLAKMKESVLMLASFEKTADHLFDAAYFGQKDSVCGVSECIIMGIPMNIGTGLFKLLHKADRDPNPPKRPLIFDTNEFHIPLVT",binds,–
"RPC5 (556–708) (domain or fragment, UniProt Q9NVU0 556-708) TPVARELKAFVEATFQRQFVLTLSELKRLFNLHLASLPPGHTLFSGISDRMLQDTVLAAGCKQILVPFPPQTAASPDEQKVFALWESGDMSDQHRQVLLEIFSKNYRVRRNMIQSRLTQECGEDLSKQEVDKVLKDCCVSYGGMWYLKGTVQS",–,binding (RPC5 (556–708) (human)): no binding (tested: 3691 μM)
"SeMet-RPC5 (556–708) (domain or fragment, UniProt Q9NVU0 556-708, selenomethionine in place of methionine) TPVARELKAFVEATFQRQFVLTLSELKRLFNLHLASLPPGHTLFSGISDRMLQDTVLAAGCKQILVPFPPQTAASPDEQKVFALWESGDMSDQHRQVLLEIFSKNYRVRRNMIQSRLTQECGEDLSKQEVDKVLKDCCVSYGGMWYLKGTVQS",–,binding [2]: no binding
